Results are given in words; binding and its absence hold for the method and conditions named. A result given as binding can be weak or reduced; the word gives no strength.

B1: ANAC017 (NTL7) (protein, UniProt Q9XIC5 1-557)
chain: MADSSPDSCFKGGKFSAPGFRFHPTDEELVMYYLKRKICRKRLRVNVIGVVDVYKMDPEELPGQSMLKTGDRQWFYFTPRSRKYPNAARSNRGTENGYWKATGKDRVIEYNSRSVGLKKTLVFYRGRAPSGERTDWVMHEYTMDEDELGRCKNPQEYYALYKLFKKSGAGPKNGEQYGAPFQEEEWVDDDNEDVNAIAVAVPEQPVVRYEDARRVDERRLFNPVILQLEDIDELLNGIPNAPGVPQRCIPQVNSEEELQSTLVNNSAREFLPNGQQYNRPSSFDSLETAEVTSAPLVFEKEDFIEMDDLLLIPEFGASSTEKAAQFSNHGEFDDFNEFDQLFHDVSMSLDMEPIDQGTSANLSSLSDSANYTSDQKQQLLYQQFQDQTPENQLNNIMDPSTTLNQITSDIWFEDDQAILFDQQQSFSGAFASPSSGVMPDSTNPTMSVNAQGHEIQNGGGTTSQFSSALWALMDSIPSTPASACEGPLNRTFVRMSSFSRMRFNGKANGTPVSTTIAKKGIRNRGFLLLSIVGALCAIFWVLVATVRVSGRSLLLKD
B2: ANAC005 (protein, UniProt O81914 1-362)
chain: MANPVGFRFRPTDGEIVDIYLRPKNLESNTSHVDEVISTVDICSFDPWDLPSHSRMKTRDQVWYFFGRKENKYGKGDRQIRKTKSGFWKKTGVTMDIMRKTGDREKIGEKRVLVFKNHGGSKSDWAMHEYHATFSSPNQIMTYTLCKVKFKGERREFSVATGSGIKHTHSLIPPTNNSGVLSVETEGSLFHSQESQNPSQFSGFLDVDALDRDFCNILSDDFKGFFNDDDEQSKIVSMQDDRNNHTPQKPLTGVFSDHSTDGSDSDPISATTISIQTLSTCPSFGSSNPLYQITDLQESPNSIKLVSLAQEVSKTPGTGIDNDAQGTEIGEHKLGQETIKNKRAGFFHRMIQKFVKKIHLRT
B3: ANAC016 (NTL3) (protein, UniProt A4FVP6 1-564)
chain: MVDSSRDSCFKAGKFSAPGFRFHPTDEELVVYYLKRKICCKKLRVNAIGVVDVYKVDPSELPGLSMLKTGDRQWFFFTPRNRKYPNAARSSRGTATGYWKATGKDRVIEYNSRSVGLKKTLVFYRGRAPNGERTDWVMHEYTMDEEELGRCKNAKEYYALYKLYKKSGAGPKNGEQYGAPFQEEEWVDSDSEDADSVAVPDYPVVRYENGPCVDDTKFCNPVKLQLEDIEKLLNEIPDAPGVNQRQFDEFVGVPQGNSAEVIQSTLLNNSSGEYIDPRTNGMFLPNGQLYNRDSSFQSHLNSFEATSGMAPLLDNEKEEYIEMNDLLIPELGASSTEKSTEFLNHGEFGDVNEYDQLFNDISVFQGTSTDLSCLSNFTNNTSGQRQQLLYEQFQYQTPENQLNNYMHPSTTLNQFTDNMWFKDDQAALYVQPPQSSSGAFTSQSTGVMPESMNPTMSVNPQYKEGQNGGGTRSQFSSALWELLESIPSTPASACEGPLNQTFVRMSSFSRIRFNGTSVTSRKVTVAKKRISNRGFLLLSIMGALCAIFWVFKATVGVMGRPLLS

The target in this test is Plasmopara halstedii RXLR effector PhRXLR-C13 (Plasmopara halstedii). Put plainly: two-hybrid.
With B1, the binding entry is “binds”. Consider B2, for which the binding result was “no binding”. Consider B3, for which the binding result was “binds”.

Values taken from publication PMC10199128.
